Assay results as given in publication PMC7890184.
These are yes or no findings as the source states them, for the method shown. Binding seen in cells or lysates may run through a third protein. Some results given as binding are weak or reduced against the parent protein; the word gives no strength.

The chains behind the UniProt entries cited, without tags or fusion partners.
UniProt P61168: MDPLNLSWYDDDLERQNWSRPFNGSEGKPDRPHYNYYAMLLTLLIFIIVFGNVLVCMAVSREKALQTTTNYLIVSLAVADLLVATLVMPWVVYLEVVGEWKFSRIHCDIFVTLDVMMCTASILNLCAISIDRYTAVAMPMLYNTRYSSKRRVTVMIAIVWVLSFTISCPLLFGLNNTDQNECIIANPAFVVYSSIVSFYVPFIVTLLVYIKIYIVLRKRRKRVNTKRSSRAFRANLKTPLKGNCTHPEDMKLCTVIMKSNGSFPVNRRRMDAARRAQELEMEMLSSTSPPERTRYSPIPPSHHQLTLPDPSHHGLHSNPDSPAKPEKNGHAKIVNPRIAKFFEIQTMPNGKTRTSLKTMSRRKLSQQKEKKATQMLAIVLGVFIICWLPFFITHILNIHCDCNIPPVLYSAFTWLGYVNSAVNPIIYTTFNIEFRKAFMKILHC
UniProt Q91YI4: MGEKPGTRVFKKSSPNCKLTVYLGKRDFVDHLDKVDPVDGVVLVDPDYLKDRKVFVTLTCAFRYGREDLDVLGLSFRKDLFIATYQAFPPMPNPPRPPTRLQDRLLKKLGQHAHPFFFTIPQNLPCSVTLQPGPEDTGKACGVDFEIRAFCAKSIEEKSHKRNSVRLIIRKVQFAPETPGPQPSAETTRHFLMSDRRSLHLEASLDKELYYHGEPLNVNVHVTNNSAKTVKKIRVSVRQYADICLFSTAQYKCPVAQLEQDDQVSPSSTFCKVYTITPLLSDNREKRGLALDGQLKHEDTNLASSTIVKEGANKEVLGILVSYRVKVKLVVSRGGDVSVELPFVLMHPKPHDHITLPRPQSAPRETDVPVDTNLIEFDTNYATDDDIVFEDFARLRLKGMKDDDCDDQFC

Molecular target: dopamine D2 receptor (mouse (endogenous in nucleus accumbens)) (UniProt P61168)
Assay: co-IP; Dynabeads Protein G kit on protein extracts of pooled nucleus accumbens punches of wt and ob/ob mice (n = 8 mice/genotype); blots for D2R and β-arrestin2, β-arrestin2 band normalised to D2R; precipitating antibody not stated; mice treated beforehand with vehicle, OX-A, SB-334867, SB-334867 then OX-A, leptin or L741

β-arrestin2 (from UniProt Q91YI4 1-410)
binding: binds
